Patent US20050233391A1
Results are given in words; binding and its absence hold for the method and conditions named. Some results given as binding are weak or reduced against the parent protein; the word gives no strength.

Amino acid sequences for entries named in this document (tags omitted). A change or cut given only in a name is not applied to a line headed by its entry.
UniProt P26718: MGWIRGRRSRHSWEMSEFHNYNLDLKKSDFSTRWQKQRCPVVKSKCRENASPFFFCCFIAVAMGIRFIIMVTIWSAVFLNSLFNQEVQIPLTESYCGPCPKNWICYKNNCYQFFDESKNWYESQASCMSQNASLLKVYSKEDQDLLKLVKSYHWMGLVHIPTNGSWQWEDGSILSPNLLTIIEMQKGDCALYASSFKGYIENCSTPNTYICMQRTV

Target: NKG2D on T cells (human) (UniProt P26718)
Experiment: flow cytometry of T cells after addition of soluble MICA

B1: purified recombinant soluble MICA (ligand)
chain: EPHSLRYNLTVLSWDGSVQSGFLAEVHLDGQPFLRYDRQKCRAKPQGQWAEDVLGNKTWDRETRDLTGNGKDLRMTLAHIKDQKEGLHSLQEIRVCEIHEDNSTRSSQHFYYDGELFLSQNVETEEWTVPQSSRAQTLAMNVRNFLKEDAMKTKTHYHAMHADCLQELRRYLESSVVLRRRVPPMVNVTRSEASEGNITVTCRASSFYPRNITLTWRQDGVSLSHDTQQWGDVLPDGNGTYQTWVATRICQGEEQRFTCYMEHSGNHSTHPVPSGKVLVLQSHW
With B1 the binding was “binds”.
